Measurements as given in US20170233472A1.
No constants are given. Whether binding was seen depends on the method and setting. Some results given as binding are weak or reduced against the parent protein; the word gives no strength.

Protein sequences, listed by entry. Tags and fused reporters are not part of them. Lines headed by an entry give the natural chain unless they say otherwise; changes in a name come on top.
UniProt Q01973: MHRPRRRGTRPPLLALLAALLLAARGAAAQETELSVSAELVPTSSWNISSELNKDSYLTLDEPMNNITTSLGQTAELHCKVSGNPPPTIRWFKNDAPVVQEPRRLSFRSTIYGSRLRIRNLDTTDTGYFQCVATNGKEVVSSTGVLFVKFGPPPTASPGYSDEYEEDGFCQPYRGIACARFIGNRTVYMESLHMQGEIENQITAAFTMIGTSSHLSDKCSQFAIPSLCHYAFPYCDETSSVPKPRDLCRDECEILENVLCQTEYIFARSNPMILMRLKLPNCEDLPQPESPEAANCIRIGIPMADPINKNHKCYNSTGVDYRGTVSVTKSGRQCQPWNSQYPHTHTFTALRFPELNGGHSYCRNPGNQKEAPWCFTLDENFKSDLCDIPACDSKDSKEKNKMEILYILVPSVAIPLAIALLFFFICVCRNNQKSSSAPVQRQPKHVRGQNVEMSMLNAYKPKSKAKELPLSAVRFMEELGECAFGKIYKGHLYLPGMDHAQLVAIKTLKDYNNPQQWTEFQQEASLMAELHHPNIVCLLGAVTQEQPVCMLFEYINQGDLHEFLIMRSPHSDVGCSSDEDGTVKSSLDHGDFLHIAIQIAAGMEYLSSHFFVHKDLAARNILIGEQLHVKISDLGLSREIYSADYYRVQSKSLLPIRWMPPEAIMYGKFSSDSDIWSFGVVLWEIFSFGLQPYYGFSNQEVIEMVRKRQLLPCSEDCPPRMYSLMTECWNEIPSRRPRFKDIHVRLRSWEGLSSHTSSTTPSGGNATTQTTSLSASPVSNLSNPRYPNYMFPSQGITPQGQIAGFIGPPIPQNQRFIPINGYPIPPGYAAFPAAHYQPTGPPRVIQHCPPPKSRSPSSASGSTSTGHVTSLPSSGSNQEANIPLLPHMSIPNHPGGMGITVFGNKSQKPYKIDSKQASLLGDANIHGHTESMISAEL

B1: DART-16 (bispecific antibody)
chain 1: QLVLTQSPSASASLGSSVKLTCTLSSGHKTDTIDWYQQQPGKAPRYLMKLEGSGSYNKGSGVPDRFGSGSSSGADRYLTISSLQSEDEADYYCGTDYPGNYLFGGGTQLTVLGGGGSGGGGEVQLVESGGGLVQPGGSLRLSCAASGFTFSTYAMNWVRQAPGKGLEWVGRIRSKYNNYATYYADSVKGRFTISRDDSKNSLYLQMNSLKTEDTAVYYCVRHGNFGNSYVSWFAYWGQGTLVTVSSGGCGGGKVAALKEKVAALKEKVAALKEKVAALKE
chain 2: QAVVTQEPSLTVSPGGTVTLTCRSSTGAVTTSNYANWVQQKPGQAPRGLIGGTNKRAPWTPARFSGSLLGGKAALTITGAQAEDEADYYCALWYSNLWVFGGGTKLTVLGGGGSGGGGQEQLVESGGGLVQPGGSLRLSCAASGFTFSDYYMSWVRQAPGKGLEWVATIYPSSGKTYYADSVKGRFTISSDNAKNSLYLQMNSLRAEDTAVYYCTRDSYADDAALFDIWGQGTTVTVSSGGCGGGEVAALEKEVAALEKEVAALEKEVAALEK
B2: DART-17 (bispecific antibody)
chain 1: QLVLTQSPSASASLGSSVKLTCTLSSGHKTDTIDWYQQQPGKAPRYLMKLEGSGSYNKGSGVPDRFGSGSSSGADRYLTISSLQSEDEADYYCGTDYPGNYLFGGGTQLTVLGGGGSGGGGEVQLVESGGGLVQPGGSLRLSCAASGFTFSTYAMNWVRQAPGKGLEWVGRIRSKYNNYATYYADSVKGRFTISRDDSKNSLYLQMNSLKTEDTAVYYCVRHGNFGNSYVSWFAYWGQGTLVTVSSGGCGGGKVAALKEKVAALKEKVAALKEKVAALKE
chain 2: QAVVTQEPSLTVSPGGTVTLTCRSSTGAVTTSNYANWVQQKPGQAPRGLIGGTNKRAPWTPARFSGSLLGGKAALTITGAQAEDEADYYCALWYSNLWVFGGGTKLTVLGGGGSGGGGQEQLVESGGGLVQPGGSLRLSCAASGFTFSDYYMSWVRQAPGKGLEWVATIYPSSGKTYYADSVKGRFTISSDNAKYSLYLQMNSLRAEDTAVYYCARDSYADDAALFDIWGQGTTVTVSSGGCGGGEVAALEKEVAALEKEVAALEKEVAALEK
B3: DART-18 (bispecific antibody)
chain 1: QLVLTQSPSASASLGSSVKLTCTLSSGHKTDTIDWYQQQPGKAPRYLMKLEGSGSYNKGSGVPDRFGSGSSSGADRYLTISSLQSEDEADYYCGTDYPGNYLFGGGTQLTVLGGGGSGGGGEVQLVESGGGLVQPGGSLRLSCAASGFTFSTYAMNWVRQAPGKGLEWVGRIRSKYNNYATYYADSVKGRFTISRDDSKNSLYLQMNSLKTEDTAVYYCVRHGNFGNSYVSWFAYWGQGTLVTVSSGGCGGGKVAALKEKVAALKEKVAALKEKVAALKE
chain 2: QAVVTQEPSLTVSPGGTVTLTCRSSTGAVTTSNYANWVQQKPGQAPRGLIGGTNKRAPWTPARFSGSLLGGKAALTITGAQAEDEADYYCALWYSNLWVFGGGTKLTVLGGGGSGGGGQEQLVESGGGLVQPGGSLRLSCAASGFTFSDYYMSWVRQAPGKGLEWVATIYPSSGKTYYADSVKGRFTISSDNAKNSLYLQMNSLRAEDTAVYYCARDSYADDAALFAIWGQGTTVTVSSGGCGGGEVAALEKEVAALEKEVAALEKEVAALEK
B4: DART-19 (bispecific antibody)
chain 1: QLVLTQSPSASASLGSSVKLTCTLSSGHKTDTIDWYQQQPGKAPRYLMKLEGSGSYNKGSGVPDRFGSGSSSGADRYLTISSLQSEDEADYYCGTDYPGNYLFGGGTQLTVLGGGGSGGGGEVQLVESGGGLVQPGGSLRLSCAASGFTFSTYAMNWVRQAPGKGLEWVGRIRSKYNNYATYYADSVKGRFTISRDDSKNSLYLQMNSLKTEDTAVYYCVRHGNFGNSYVSWFAYWGQGTLVTVSSGGCGGGKVAALKEKVAALKEKVAALKEKVAALKE
chain 2: QAVVTQEPSLTVSPGGTVTLTCRSSTGAVTTSNYANWVQQKPGQAPRGLIGGTNKRAPWTPARFSGSLLGGKAALTITGAQAEDEADYYCALWYSNLWVFGGGTKLTVLGGGGSGGGGQEQLVESGGGLVQPGGSLRLSCAASGFTFSDYYMSWVRQAPGKGLEWVATIYPSSGKTYYADSVKGRFTISSDNAKNSLYLQMNSLRAEDTAVYYCARDSYADDAALFYIWGQGTTVTVSSGGCGGGEVAALEKEVAALEKEVAALEKEVAALEK
B5: DART-20 (bispecific antibody)
chain 1: QLVLTQSPSASASLGSSVKLTCTLSSGHKTDTIDWYQQQPGKAPRYLMKLEGSGSYNKGSGVPDRFGSGSSSGADWYLTISSLQSEDEADYYCGTDYPGNYLFGGGTQLTVLGGGGSGGGGEVQLVESGGGLVQPGGSLRLSCAASGFTFSTYAMNWVRQAPGKGLEWVGRIRSKYNNYATYYADSVKGRFTISRDDSKNSLYLQMNSLKTEDTAVYYCVRHGNFGNSYVSWFAYWGQGTLVTVSSGGCGGGKVAALKEKVAALKEKVAALKEKVAALKE
chain 2: QAVVTQEPSLTVSPGGTVTLTCRSSTGAVTTSNYANWVQQKPGQAPRGLIGGTNKRAPWTPARFSGSLLGGKAALTITGAQAEDEADYYCALWYSNLWVFGGGTKLTVLGGGGSGGGGQEQLVESGGGLVQPGGSLRLSCAASGFTFSDYYMSWVRQAPGKGLEWVATIYPSSGKTYYADSVKGRFTISSDNAKNSLYLQMNSLRAEDTAVYYCTRDSYADDAALFDIWGQGTTVTVSSGGCGGGEVAALEKEVAALEKEVAALEKEVAALEK
B6: DART-21 (bispecific antibody)
chain 1: QLVLTQSPSASASLGSSVKLTCTLSSGHKTDTIDWYQQQPGKAPRYLMKLEGSGSYNKGSGVPDRFGSGISSGADRYLTISSLQSEDEADYYCGTDYPGNYLFGGGTQLTVLGGGGSGGGGEVQLVESGGGLVQPGGSLRLSCAASGFTFSTYAMNWVRQAPGKGLEWVGRIRSKYNNYATYYADSVKGRFTISRDDSKNSLYLQMNSLKTEDTAVYYCVRHGNFGNSYVSWFAYWGQGTLVTVSSGGCGGGKVAALKEKVAALKEKVAALKEKVAALKE
chain 2: QAVVTQEPSLTVSPGGTVTLTCRSSTGAVTTSNYANWVQQKPGQAPRGLIGGTNKRAPWTPARFSGSLLGGKAALTITGAQAEDEADYYCALWYSNLWVFGGGTKLTVLGGGGSGGGGQEQLVESGGGLVQPGGSLRLSCAASGFTFSDYYMSWVRQAPGKGLEWVATIYPSSGKTYYADSVKGRFTISSDNAKNSLYLQMNSLRAEDTAVYYCTRDSYADDAALFDIWGQGTTVTVSSGGCGGGEVAALEKEVAALEKEVAALEKEVAALEK
B7: DART-22 (bispecific antibody)
chain 1: QLVLTQSPSASASLGSSVKLTCTLSSGHKTDTIDWYQQQPGKAPRYLMKLEGSGSYNKGSGVPDRFGSGSSSGADWYLTISSLQSEDEADYYCGTDYPGNYLFGGGTQLTVLGGGGSGGGGEVQLVESGGGLVQPGGSLRLSCAASGFTFSTYAMNWVRQAPGKGLEWVGRIRSKYNNYATYYADSVKGRFTISRDDSKNSLYLQMNSLKTEDTAVYYCVRHGNFGNSYVSWFAYWGQGTLVTVSSGGCGGGKVAALKEKVAALKEKVAALKEKVAALKE
chain 2: QAVVTQEPSLTVSPGGTVTLTCRSSTGAVTTSNYANWVQQKPGQAPRGLIGGTNKRAPWTPARFSGSLLGGKAALTITGAQAEDEADYYCALWYSNLWVFGGGTKLTVLGGGGSGGGGQEQLVESGGGLVQPGGSLRLSCAASGFTFSDYYMSWVRQAPGKGLEWVATIYPSSGKTYYADSVKGRLTISSDNAKNSLYLQMNSLRAEDTAVYYCARDSYADDAALFDIWGQGTTVTVSSGGCGGGEVAALEKEVAALEKEVAALEKEVAALEK
B8: DART-24 (bispecific antibody)
chain 1: QLVLTQSPSASASLGSSVKLTCTLSSGHKTDTIDWYQQQPGKAPRYLMKLEGSGSYNKGSGVPDRFGSGSSSGADRYLTISSLQSEDEADYYCGTDNPGNYLFGGGTQLTVLGGGGSGGGGEVQLVESGGGLVQPGGSLRLSCAASGFTFSTYAMNWVRQAPGKGLEWVGRIRSKYNNYATYYADSVKGRFTISRDDSKNSLYLQMNSLKTEDTAVYYCVRHGNFGNSYVSWFAYWGQGTLVTVSSGGCGGGKVAALKEKVAALKEKVAALKEKVAALKE
chain 2: QAVVTQEPSLTVSPGGTVTLTCRSSTGAVTTSNYANWVQQKPGQAPRGLIGGTNKRAPWTPARFSGSLLGGKAALTITGAQAEDEADYYCALWYSNLWVFGGGTKLTVLGGGGSGGGGQEQLVESGGGLVQPGGSLRLSCAASGFTFSDYYMSWVRQAPGKGLEWVATIYPSSGKTYYADSVKGRFTISSDNAKNSLYLQMNSLRAEDTAVYYCTRDSYADDAALFDIWGQGTTVTVSSGGCGGGEVAALEKEVAALEKEVAALEKEVAALEK
B9: DART-3 (bispecific antibody)
chain 1: QLVLTQSPSASASLGSSVKLTCTLSSGHKTDTIDWYQQQPGKAPRYLMNLEGSGSYNKGSGVPDRFGSGSSSGADRYLTISSLQSEDEADYYCGTDYPGNYLFGGGTQLTVLGGGGSGGGGEVQLVESGGGLVQPGGSLRLSCAASGFTFSTYAMNWVRQAPGKGLEWVGRIRSKYNNYATYYADSVKGRFTISRDDSKNSLYLQMNSLKTEDTAVYYCVRHGNFGNSYVSWFAYWGQGTLVTVSSGGCGGGKVAALKEKVAALKEKVAALKEKVAALKE
chain 2: QAVVTQEPSLTVSPGGTVTLTCRSSTGAVTTSNYANWVQQKPGQAPRGLIGGTNKRAPWTPARFSGSLLGGKAALTITGAQAEDEADYYCALWYSNLWVFGGGTKLTVLGGGGSGGGGQEQLVESGGGLVQPGGSLRLSCAASGFTFSDYYMSWVRQAPGKGLEWVATIYPSSGKTYYADSVKGRFTISSDNAKNSLYLQMNSLRAEDTAVYYCARDSYADDAALFDIWGQGTTVTVSSGGCGGGEVAALEKEVAALEKEVAALEKEVAALEK
B10: DART-25 (bispecific antibody)
chain 1: QLVLTQSPSASASLGSSVKLTCTLSSGHKTDTIDWYQQQPGKAPRYLMKLEGSGSYNKGSGVPDRFGSGSSSGADWYLTISSLQSEDEADYYCGTDYPGNYLFGGGTQLTVLGGGGSGGGGEVQLVESGGGLVQPGGSLRLSCAASGFTFSTYAMNWVRQAPGKGLEWVGRIRSKYNNYATYYADSVKGRFTISRDDSKNSLYLQMNSLKTEDTAVYYCVRHGNFGNSYVSWFAYWGQGTLVTVSSGGCGGGKVAALKEKVAALKEKVAALKEKVAALKE
chain 2: QAVVTQEPSLTVSPGGTVTLTCRSSTGAVTTSNYANWVQQKPGQAPRGLIGGTNKRAPWTPARFSGSLLGGKAALTITGAQAEDEADYYCALWYSNLWVFGGGTKLTVLGGGGSGGGGQEQLVESGGGLVQPGGSLRLSCAASGFTFSDYYMSWVRQAPGKGLEWVATIYPSSGKTYYADSVKGRLTISSDNAKDSLYLQMNSLRAEDTAVYYCTRDSYADDAALFDIWGQGTTVTVSSGGCGGGEVAALEKEVAALEKEVAALEKEVAALEK

Biological target: His-tagged soluble human ROR1 (shROR1-His) (human) (UniProt Q01973)
Assay: ELISA, plate-coated shROR1-His, relative to DART-1

Binder	binding
B1	binds
B2	binds
B3	binds
B4	binds
B5	binds
B6	binds
B7	binds
B8	binds
B9	binds
B10	binds
